## Primary screen of a compound library

Measurements from “University of Dundee, Small-Polar-MMV Screening Library” (2021), ChEMBL document CHEMBL3988442.

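Viability assay of Plasmodium falciparum sporozoites; the read-out is not stated. The concentration is filed as 10 mM, unlikely as a test dose, so the dose is not known. Direction is inferred from retests: higher values go with lower viability. Strong results were mostly tested again. Of about 34,000 compounds tested this way, about 280 (0.84%) reached 50% or more in at least one test.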

The filed quantity is “Percent Effect” (%). How 0% and 100% were set is not recorded. Most values in the screen are low, and negative values occur. Compounds were drawn at random from those tested, without regard to their results. Two or more numbers in one place are separate tests of the same structure; such repeats can differ widely.

{"smiles": "O=C(c1ncccn1)N1CCC[C@]2(C[C@H](OCC3CC3)CO2)C1", "percent effect": -8.849}
{"smiles": "COc1cc(I)c(Cl)cc1C(=O)N(C)C", "percent effect": 13.9}
{"smiles": "Cc1ccc(NCCCNC(=O)C2CC3(CCNCC3)CN2C)nc1", "stereo": "stereo not shown", "percent effect": 2.23}
{"smiles": "CCN(Cc1cccc2c1OCO2)C(=O)NCCOC", "percent effect": -0.6077}
{"smiles": "CC(C)(C)OC(=O)N1CC(=O)N(Cc2ccco2)CC(O)C1", "stereo": "stereo not shown", "percent effect": -34.06}
{"smiles": "Cc1cc(C)n(CC2CCCN2C(=O)c2cnccn2)n1", "stereo": "stereo not shown", "percent effect": 2.95}
{"smiles": "O=C(O)C(F)(F)F.[H][C@@]12CCN(c3cccc(F)c3)C[C@@]1([H])O[C@@H](C(=O)N1CCCC1)C2", "percent effect": 3.035}
{"smiles": "CCOC(=O)C1CCCN(c2ccc(-c3nc(C)no3)cn2)C1", "stereo": "stereo not shown", "percent effect": -0.4292}
{"smiles": "Cc1cccc(-c2noc(CN3CCc4nn(C)c(=O)cc4C3)n2)c1", "percent effect": -1.716}
{"smiles": "O=C1CN([C@@H]2CC[C@@H](NS(=O)(=O)c3ccccc3F)[C@H]2O)CCN1", "percent effect": 1.925}
{"smiles": "CCc1ccc(-c2cc(C(F)(F)F)nc(N3CCC(N)CC3)n2)cc1", "percent effect": "67.54 and 55.39"}
{"smiles": "C[C@@H]1CN(C2(C(=O)N3CCOCC3)Cc3ccccc3C2)C[C@H](C)O1", "percent effect": -6.943}
{"smiles": "O=C(NCCn1ccnc1)NCC(c1ccco1)N1CCCCC1", "stereo": "stereo not shown", "percent effect": -13.18}
{"smiles": "Cc1ccc(OC2(C(=O)O)CCN(C(=O)c3nc(C)oc3C)CC2)cn1", "percent effect": -6.757}
{"smiles": "CC(C)c1ccc(OCn2ccc(C(=O)N3CCCC3)n2)cc1", "percent effect": -4.58}
{"smiles": "Cc1ccc(-n2nnc(C(=O)NCC(F)(F)F)c2C2CC2)cc1", "percent effect": -7.493}
{"smiles": "CC(C)CN1Cc2c(C(=O)N(C)C)ncn2-c2ccccc2S1(=O)=O", "percent effect": -5.257}
{"smiles": "Cc1cnn(CC2CCCN2C(=O)c2nccnc2N)c1", "stereo": "stereo not shown", "percent effect": 9.694}
{"smiles": "CC(=O)N1CCCCC12CCCN(Cc1ccco1)C2.O=C(O)C(F)(F)F", "stereo": "stereo not shown", "percent effect": -6.392}
{"smiles": "CCCn1nc2c(cc1=O)CN(Cc1cc(C)no1)CC2", "percent effect": -43.43}
{"smiles": "O=C(O)C(F)(F)F.[H][C@@]12COC[C@]1(CNS(C)(=O)=O)CN(CC1CCCC1)C2", "percent effect": -8}
{"smiles": "CN(C)C(=O)c1ccccc1NCCCOc1cccc(C#N)c1", "percent effect": -6.9}
{"smiles": "O=C(CC1CCCO1)NCc1ccccc1Cn1cncn1", "stereo": "stereo not shown", "percent effect": 6.438}
{"smiles": "Cn1ccnc1CCNS(=O)(=O)c1ccc(Br)cc1", "percent effect": 8.876}
{"smiles": "O=C(O)c1cc(S(=O)(=O)Nc2cccc(F)c2F)cc2c1OCCO2", "percent effect": 1.761}
{"smiles": "CCc1cnc(CN(C(C)=O)C2CCN(CCS(C)(=O)=O)C2)o1", "stereo": "stereo not shown", "percent effect": 10.75}
{"smiles": "Cc1cccc(N2CCCC2c2nc(C)ncc2CN(C)C)n1", "stereo": "stereo not shown", "percent effect": -2.31}
{"smiles": "CCCC(C(=O)NCCc1nc(C)cs1)N(C)C", "stereo": "stereo not shown", "percent effect": -10.29}
{"smiles": "OC1CCN(CCCNc2nccc(C3CCCC3)n2)CC1", "percent effect": "47.15 and 30.94 and 38.05"}
{"smiles": "CNC(=O)C1(C)CN(c2nc(C)cc(C)n2)CCO1", "stereo": "stereo not shown", "percent effect": 6.869}
{"smiles": "COCC(=O)N1CCN(C(=O)c2scnc2C)CC1", "percent effect": -0.3382}
{"smiles": "CCc1nc(CCNC(=O)Nc2ccc(C(=O)NC)cc2C)cs1", "percent effect": 13.52}
{"smiles": "CCOc1ccc(Cl)c(C(=O)NCCc2ncc[nH]2)n1", "percent effect": 10.45}
{"smiles": "O=C(O)C(F)(F)F.[H][C@@]12CCN(S(=O)(=O)c3cccnc3)[C@]1([H])CC[C@@H](c1nc(C)no1)O2", "percent effect": 2.029}
{"smiles": "O=C(CC1CCCO1)NCCc1ccc(Br)cc1F", "stereo": "stereo not shown", "percent effect": -9.55}
{"smiles": "CCOCCN1CCC=C(C2c3nc[nH]c3CCN2C(C)=O)C1", "stereo": "stereo not shown", "percent effect": -7.846}
{"smiles": "CCOc1ccccc1CSCCn1nc2ccccn2c1=O", "percent effect": 4.236}
{"smiles": "COc1c(CNCCNC(=O)c2ccc(C)cc2)c(C(C)C)nn1C", "percent effect": 12.45}
{"smiles": "[H][C@@]12CC[C@H](Oc3cccc(F)c3)[C@]1([H])CN(C(=O)c1cccc(C)n1)C2", "percent effect": -0.7508}
{"smiles": "Cc1nc(CN(C)C2CCN(CCn3cc(C#N)cn3)C2)no1", "stereo": "stereo not shown", "percent effect": 7.164}
{"smiles": "COc1ccc2cc(C3CN(C(=O)N(C)C)CCO3)ccc2c1", "stereo": "stereo not shown", "percent effect": "102.8 and 105.3 and 102"}
{"smiles": "COCC1CN(C(=O)Cc2ccccn2)Cc2cn(CC3CC3)nc21", "stereo": "stereo not shown", "percent effect": -22.87}
{"smiles": "CC(C)c1ncc2c(n1)CN(Cc1nc(-c3ccoc3)no1)CC2", "percent effect": "11.99 and 7.268 and 10.61"}
{"smiles": "O=C(c1[nH]nc(C2CC2)c1Cl)N1CCN(C2CC2)CC1", "percent effect": "-13.62 and -21.71"}
{"smiles": "Cc1ccc(-n2ccnc2)c(C(=O)NCCCN(C)C)c1", "percent effect": 4.618}
{"smiles": "COc1c(C2CCCN2C(=O)c2c(C)noc2C(C)C)c(C)nn1C", "stereo": "stereo not shown", "percent effect": 13.77}
{"smiles": "COc1ccc(CN2CC[C@@H](O)[C@@H]2Cc2cnn(C)c2)cc1.O=C(O)C(F)(F)F", "percent effect": 3.522}
{"smiles": "CCc1ccsc1C(=O)NCCn1nc2ccccn2c1=O", "percent effect": 3.128}
{"smiles": "CC(C)(C)CN1CCCC2(CCN(C(=O)c3cn[nH]c3)C2)C1", "stereo": "stereo not shown", "percent effect": -0.1776}
{"smiles": "O=C(Nc1ncn(CC(=O)N2CCCCCC2)n1)C1CCCO1", "stereo": "stereo not shown", "percent effect": -1.814}
{"smiles": "O=C(O)C(F)(F)F.[H][C@@]12CN(CCc3ccccc3)C[C@H](C(=O)N3CCCO3)[C@]1([H])CCO2", "percent effect": -0.974}
{"smiles": "CCN1CCCn2c(nc(CNC(=O)c3cnoc3C)cc2=O)C1.O=C(O)C(F)(F)F", "percent effect": -1.609}
{"smiles": "Cc1nc[nH]c1CN1CCn2nc(CN3Cc4ccccc4C3)cc2C1", "percent effect": 7.581}
{"smiles": "O=C(O)C(F)(F)F.[H][C@@]12CN(CC3CC3)C[C@]1([H])[C@@H](OC)CCN2C(=O)c1ccsc1", "percent effect": 8.144}
{"smiles": "CC(C)N(Cc1cccc(F)c1)Cc1nc2c(cnn2C)c(=O)[nH]1", "percent effect": 3.06}
{"smiles": "CC(C)CN1CCC2(CCN(Cc3ccsc3)CC2)C1=O", "percent effect": 5.762}

For reference, 4 entries once more:

SMILES,percent effect
[H][C@@]12CC[C@H](Oc3cccc(F)c3)[C@]1([H])CN(C(=O)c1cccc(C)n1)C2,-0.7508
CCOC(=O)C1CCCN(c2ccc(-c3nc(C)no3)cn2)C1 (stereo not shown),-0.4292
CCN(Cc1cccc2c1OCO2)C(=O)NCCOC,-0.6077
CC(C)(C)CN1CCCC2(CCN(C(=O)c3cn[nH]c3)C2)C1 (stereo not shown),-0.1776